Assay results reported in PubChem BioAssay AID1347426 (Functional Genomics Laboratory (NCATS/FGL), 2020).
The whole screen tested about 31,000 sequences, of which about 1,400 (4.5%) were called active.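 How the source made its calls: active means median seed-adjusted z-score above 1 or below -1; inactive means the rest.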 Some of the results follow.

Assay: Novel Modifiers of Survival Motor Neuron (SMN) Protein: Gene Identification via Genome-wide siRNA Screen;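 further: luminescence tracks full-length SMN protein made from the SMN2 reporter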
Conditions: HEK293T SMN2-luciferase reporter, siRNA knockdown, 72 h; actives lie on both sides
Outline: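 Each of three siRNAs per gene is reverse-transfected (1 pmol) into reporter HEK293T cells whose luciferase output tracks SMN protein level. After 72 h culture, ONE-Glo luminescence is control-normalized, log10-transformed and MAD-standardized; Common Seed Analysis deprioritizes seed-driven hits.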

| Sequence | median seed-adjusted z-score |
| --- | --- |
| GGACGACAAUGACAACUUUTT against FOXRED2 | inactive: 0.0294 |
| AGCUCUACAUUGGCGAUGATT against DUPD1 | inactive: -0.406 |
| GGAUGUUGUUUAUCGAGGATT against MED21 | active: -1.3 |
| CCCUGAACAUACCUACUGATT against BRS3 | inactive: 0.224 |
| GCAUUGACUGGUCCUAUGATT against CPA2 | inactive: 0.0374 |
| GUGGAUGGAGUGAAAGUGATT against NOS1AP | inactive: 0.00192 |
| GAGUCGCUUUUGAUGUUGATT against ZNF217 | inactive: -0.872 |
| GCAUGUACCAGGUUCAGUATT against LRFN1 | inactive: 0.605 |
| UCAUUGUGGUUGGAGUUAATT against AP4S1 | inactive: -0.498 |
| GCGUUAUGCUGACCUCUAUTT against NT5C2 | inactive: -0.687 |
| GGAUCAGUAAUAUACCACATT against MTFMT | inactive: -0.0119 |
| GCAUGAGUGUUGAUAGGUATT against AGTR2 | inactive: 0.204 |
| GCACCUACCUUGCAUCUAATT against HSDL2 | inactive: -0.0717 |
| CAGAUUCAUUCAACUUUAATT against DDC | inactive: 0.395 |
| UGCCCACUGUGCAAAUUCATT against RNF215 | inactive: -0.889 |
| GGUUUUCAUUGACCGGUUUTT against ABCF3 | inactive: 0.0759 |
| CAAUGGAACUUUAGAUUAUTT against PCDHA11 | inactive: 0.582 |
| GGAUCCGAAGCAAAGUUGATT against MBD1 | inactive: 0 |
| GGAUAUCAAGUCGGAAAAATT against RSF1 | inactive: 0 |
| GGAGGAGUGUCAAUCCAUATT against SCG5 | inactive: 0.573 |
| GCACAUCUACAAGGAGAUUTT against MAPK13 | inactive: -0.491 |
| GCAGGAUCCUCAAGUAGUATT against NFX1 | inactive: -0.256 |
| GGCAAAAUCUGGACACCAUTT against TFAP4 | inactive: -0.0515 |

| Sequence | median seed-adjusted z-score |
| --- | --- |
| GGACAUCCCUGAGAUUGCATT against EDC4 | inactive: 0 |
| CUGCAACUCUAACUAUUCATT against OMG | inactive: 0.273 |
| GGCCUCUUCGAUGUCCUCATT against HTR6 | inactive: -0.463 |
| GCACAGAGCUGUCAGUGGUTT against EIF6 | inactive: 0 |
| GAAAGACUGAUGAGAUUAUTT against TXNDC6 | inactive: 0.156 |
| CGCGGGAAAGUUGAACUAATT against BCL2L12 | inactive: -0.77 |
| CCACCAUUGAAGAUGCUUATT against RIT1 | inactive: -0.157 |
| CCUUGUUUCUACCAACAGUTT against HOXA6 | inactive: -0.282 |
| GGACUAACCUUUGAGAAAUTT against KCNMB1 | inactive: -0.465 |
| ACAAUGAAGUGAACCGCAATT against GFER | inactive: 0.402 |
| GCUCAGCACUUAUCGAACATT against ZNF135 | inactive: 0.038 |
| CAUUGAUCUGUUAAAGAAATT against HIPK1 | inactive: 0.69 |
| ACGUAUUCCUUUCUUAUCATT against LIPC | inactive: 0.244 |
| CUUUCCGUGUGAAAUCAAATT against ZNF761 | inactive: 0.291 |
| UCAUCUACACUGUCUUCAATT against DRD4 | inactive: -0.183 |
| CGAGGGUAUCAGAAACGUATT against UNC5C | inactive: 0.0496 |
| AGCUGAAGGUGGUUCGAGATT against TRIM9 | inactive: -0.437 |
| AGGCCAUUCGUGAAGCUUATT against FCAR | inactive: -0.106 |
| GCUUGUUCCUUCAAUUAAATT against ZNF41 | inactive: 0.342 |
| CAUUCAAAUUGCACUGCUATT against TRAPPC4 | inactive: 0 |
| GAACGGCAAUGUAUUCCAATT against SSR1 | inactive: -0.434 |
| GAAUCAGACAGCGAAGUAATT against MPP5 | inactive: 0.429 |
| CCAACGACUGGAUUCCAGATT against SERPIND1 | inactive: 0.133 |

| Sequence | median seed-adjusted z-score |
| --- | --- |
| CGAUAUAUUGGAUAAUCGATT against BIRC6 | inactive: 0.0785 |
| CGUCGCGCCCUGUACAUAATT against GPR35 | active: -1.46 |
| GCUCUAAUCUUACUAGGCATT against ZNF10 | inactive: 0 |
| ACACUUCGUUAUUCCUCUATT against TAAR5 | inactive: 0.573 |
| GCUUAGGUCUUGCUCUCAATT against YWHAE | active: 1.38 |
| GCAUCCGCACUUCCACUAATT against SERINC3 | inactive: 0.29 |
| CAUCCGGAAGGAGCCCUUUTT against ALDH3B1 | inactive: 0.148 |
| GGAUACAUGAAGACACUUUTT against CD180 | inactive: 0 |
| CCGUGAAGCUGAUGCGUGATT against ATP1A3 | inactive: 0.329 |
| CAAACCUCCCAGUAUCUAUTT against UBE2J2 | inactive: -0.341 |
| GCAAGCUGCUGAUCGAGUUTT against KAT5 | inactive: 0.32 |
| UGAGUUCUUUAGGACCGAATT against MFAP3L | active: 1.03 |
| GGUUCCCUGUACCAGCAAATT against GALNT4 | inactive: 0.419 |
| GGUUCUUUCUUGGUCCAAATT against SLC33A1 | inactive: 0.2 |
| GGAUAUGCUUCUAGGCCUATT against DDI1 | inactive: 0.259 |
| CCCAUUUCGGACUCCAAAATT against IRX3 | inactive: -0.285 |
| CCUAUGAUGAGGUCCAAGATT against CBLC | inactive: -0.726 |
| GAACUAGGAGAUACAAUAUTT against ELOVL6 | inactive: 0.742 |
| CGGUGGGAUGGGAACGAAATT against DRAP1 | active: 1.08 |
| CACCAAAUCUAAGGACCUATT against NEBL | inactive: 0.0769 |
| GAGCACCCGUAUCAUUUAUTT against TPI1 | inactive: 0.447 |
| GGCUUGGUAUCAUACACUATT against LRAT | inactive: 0.345 |
| CAAAGGCAUCGAGUACUUATT against CAMKK2 | inactive: -0.121 |
